Our source for the binding values is paper PMC6449396.

Chains of the proteins cited; added tags and fusions are not shown. Lines headed by an entry give the natural chain unless they say otherwise; changes in a name come on top. A line that says so, or that is headed by a name, gives the form on record, which may keep a tag or linker. Residues count along the entry.
HA-tagged PML aa 1–229 (P29590, residues 1-229): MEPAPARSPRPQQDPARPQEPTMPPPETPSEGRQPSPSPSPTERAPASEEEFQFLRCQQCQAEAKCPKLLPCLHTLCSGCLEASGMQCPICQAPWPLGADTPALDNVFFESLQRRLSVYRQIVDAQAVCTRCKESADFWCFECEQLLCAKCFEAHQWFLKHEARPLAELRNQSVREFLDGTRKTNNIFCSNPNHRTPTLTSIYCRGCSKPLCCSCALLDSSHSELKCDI
HA-PML (PML-IV), full length (P29590, form named): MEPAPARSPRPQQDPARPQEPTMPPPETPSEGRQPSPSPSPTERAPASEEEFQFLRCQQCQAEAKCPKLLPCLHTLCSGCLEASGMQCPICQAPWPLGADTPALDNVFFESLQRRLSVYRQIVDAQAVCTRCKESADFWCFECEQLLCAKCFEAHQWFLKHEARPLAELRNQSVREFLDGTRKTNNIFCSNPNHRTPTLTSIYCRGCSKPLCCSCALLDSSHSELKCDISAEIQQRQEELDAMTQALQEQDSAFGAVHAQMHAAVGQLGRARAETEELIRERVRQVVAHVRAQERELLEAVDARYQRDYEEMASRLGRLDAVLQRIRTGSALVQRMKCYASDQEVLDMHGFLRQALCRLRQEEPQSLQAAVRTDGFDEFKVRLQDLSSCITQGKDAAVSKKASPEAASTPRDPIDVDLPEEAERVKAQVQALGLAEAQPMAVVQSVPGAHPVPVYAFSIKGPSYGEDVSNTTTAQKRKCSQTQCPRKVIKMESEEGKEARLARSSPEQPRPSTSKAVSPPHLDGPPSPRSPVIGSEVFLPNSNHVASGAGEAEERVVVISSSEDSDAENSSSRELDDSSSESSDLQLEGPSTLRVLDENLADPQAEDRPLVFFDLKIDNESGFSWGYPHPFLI

For assay [1], the target named is HA-PML (PML-IV), full length (UniProt P29590). Briefly: co-IP; 293T cells co-transfected with tagged PML, tagged MDM2 and increasing amounts of FL Mad1 or Mad1ΔCTD; extracts 48 h after transfection immunoprecipitated with beads coupled to anti-FLAG antibodies.
For assay [2] the target is unchanged. Description: co-IP; anti-HA magnetic beads, 5 h at 4 °C; lysates of transiently transfected HEK-293T cells in RIPA buffer; HA-PML constructs as bait, FLAG-tagged Mad1 constructs detected.
Another assay addresses HA-tagged PML aa 1–229 (UniProt P29590). The assay is described as above.

These are yes or no findings as the source states them, for the method shown. Binding seen in cells or lysates may run through a third protein. Some entries that bind do so weakly or less than the wild type. For some of these results: Tags and fused reporters may be left off the sequences shown.

B1: full length (FL) Mad1 of Fig. 6 (protein, UniProt Q9Y6D9 1-718)
chain: MEDLGENTMVLSTLRSLNNFISQRVEGGSGLDISTSAPGSLQMQYQQSMQLEERAEQIRSKSHLIQVEREKMQMELSHKRARVELERAASTSARNYEREVDRNQELLTRIRQLQEREAGAEEKMQEQLERNRQCQQNLDAASKRLREKEDSLAQAGETINALKGRISELQWSVMDQEMRVKRLESEKQELQEQLDLQHKKCQEANQKIQELQASQEARADHEQQIKDLEQKLSLQEQDAAIVKNMKSELVRLPRLERELKQLREESAHLREMRETNGLLQEELEGLQRKLGRQEKMQETLVGLELENERLLAKLQSWERLDQTMGLSIRTPEDLSRFVVELQQRELALKDKNSAVTSSARGLEKARQQLQEELRQVSGQLLEERKKRETHEALARRLQKRVLLLTKERDGMRAILGSYDSELTPAEYSPQLTRRMREAEDMVQKVHSHSAEMEAQLSQALEELGGQKQRADMLEMELKMLKSQSSSAEQSFLFSREEADTLRLKVEELEGERSRLEEEKRMLEAQLERRALQGDYDQSRTKVLHMSLNPTSVARQRLREDHSQLQAECERLRGLLRAMERGGTVPADLEAAAASLPSSKEVAELKKQVESAELKNQRLKEVFQTKIQEFRKACYTLTGYQIDITTENQYRLTSLYAEHPGDCLIFKATSPSGSKMQLLETEFSHTVGELIEVHLRRQDSIPAFLSSLTLELFSRQTVA
With B1, the binding entry in assay [1] was “binds”.

B2: Mad1-3xFLAG, full length wild type (protein, UniProt Q9Y6D9 1-718)
chain: MEDLGENTMVLSTLRSLNNFISQRVEGGSGLDISTSAPGSLQMQYQQSMQLEERAEQIRSKSHLIQVEREKMQMELSHKRARVELERAASTSARNYEREVDRNQELLTRIRQLQEREAGAEEKMQEQLERNRQCQQNLDAASKRLREKEDSLAQAGETINALKGRISELQWSVMDQEMRVKRLESEKQELQEQLDLQHKKCQEANQKIQELQASQEARADHEQQIKDLEQKLSLQEQDAAIVKNMKSELVRLPRLERELKQLREESAHLREMRETNGLLQEELEGLQRKLGRQEKMQETLVGLELENERLLAKLQSWERLDQTMGLSIRTPEDLSRFVVELQQRELALKDKNSAVTSSARGLEKARQQLQEELRQVSGQLLEERKKRETHEALARRLQKRVLLLTKERDGMRAILGSYDSELTPAEYSPQLTRRMREAEDMVQKVHSHSAEMEAQLSQALEELGGQKQRADMLEMELKMLKSQSSSAEQSFLFSREEADTLRLKVEELEGERSRLEEEKRMLEAQLERRALQGDYDQSRTKVLHMSLNPTSVARQRLREDHSQLQAECERLRGLLRAMERGGTVPADLEAAAASLPSSKEVAELKKQVESAELKNQRLKEVFQTKIQEFRKACYTLTGYQIDITTENQYRLTSLYAEHPGDCLIFKATSPSGSKMQLLETEFSHTVGELIEVHLRRQDSIPAFLSSLTLELFSRQTVA
Turning to B2, the binding entry (in assay [2]; in the assay with HA-tagged PML aa 1–229) was “binds” throughout.

B3: Mad1 aa 180–718, FLAG-tagged fragment (domain or fragment, UniProt Q9Y6D9 180-718)
chain: VKRLESEKQELQEQLDLQHKKCQEANQKIQELQASQEARADHEQQIKDLEQKLSLQEQDAAIVKNMKSELVRLPRLERELKQLREESAHLREMRETNGLLQEELEGLQRKLGRQEKMQETLVGLELENERLLAKLQSWERLDQTMGLSIRTPEDLSRFVVELQQRELALKDKNSAVTSSARGLEKARQQLQEELRQVSGQLLEERKKRETHEALARRLQKRVLLLTKERDGMRAILGSYDSELTPAEYSPQLTRRMREAEDMVQKVHSHSAEMEAQLSQALEELGGQKQRADMLEMELKMLKSQSSSAEQSFLFSREEADTLRLKVEELEGERSRLEEEKRMLEAQLERRALQGDYDQSRTKVLHMSLNPTSVARQRLREDHSQLQAECERLRGLLRAMERGGTVPADLEAAAASLPSSKEVAELKKQVESAELKNQRLKEVFQTKIQEFRKACYTLTGYQIDITTENQYRLTSLYAEHPGDCLIFKATSPSGSKMQLLETEFSHTVGELIEVHLRRQDSIPAFLSSLTLELFSRQTVA
Turning to B3, the binding entry in assay [2] was “binds”.
